Data as given in PubChem BioAssay AID1259424 (University of Nebraska Medical Center, 2018).

- Purpose: 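Find knockdowns that reproduce the expression shifts seen after KSR1 loss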 (primary screen)
- System: human HCT116 colon cancer cells
- Knock-down reagent: siRNA pool against human genes, 50 nM
- Detection: 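Six signature mRNAs by branched-DNA multiplex assay, scaled to two housekeeping genes and non-targeting median, log2; matched to mean KSR1 knockdown profile by Pearson correlation and euclidean distance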
- Reading the numbers: mean correlation with KSR1 profile and KSR1 correlation: higher = expression change more like KSR1 knockdown; mean distance from KSR1 profile: higher = expression change less like KSR1 knockdown
This is an unselected part of about 14,000 deposited reagents. 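Higher correlation or smaller distance means closer resemblance to KSR1 loss; control wells, including KSR1 knockdowns, recur on many plates.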 Not all columns of the deposit are shown. The record does not give: the time to read-out.

gene	mean correlation with KSR1 profile	mean distance from KSR1 profile	KSR1 correlation, replicate 1	KSR1 correlation, replicate 2
EN1	-0.253	2.65	-0.105	-0.0148
HOXC12	0.155	1.89	-0.193	0.351
VAMP7	-0.203	2.77	-0.0735	-0.286
HROB	-0.0745	2.64	-0.0574	-0.222
PPP1R11	-0.296	1.99	-0.309	-0.193
DCC	-0.753	2.16	-0.718	-0.709
MAFK	0.218	1.37	0.647	0.0416
FBP1	0.612	1.55	0.45	0.588
NEK10	0.461	3.62	0.573	0.373
NEUROG3	-0.254	1.81	-0.0831	-0.351
MINK1	0.311	2.5	0.332	0.423
ZNF638	-0.171	1.04	-0.575	-0.45
SNCA	-0.388	2.64	-0.551	-0.409

Continued (4 carried over from the part before).
gene	mean correlation with KSR1 profile	mean distance from KSR1 profile	KSR1 correlation, replicate 1	KSR1 correlation, replicate 2
NEUROG3	-0.254	1.81	-0.0831	-0.351
MINK1	0.311	2.5	0.332	0.423
ZNF638	-0.171	1.04	-0.575	-0.45
SNCA	-0.388	2.64	-0.551	-0.409
ANKRD26	0.411	1.04	0.496	0.451
MNAT1	-0.269	2.46	-0.0786	-0.498
SLX1B	-0.487	1.83	-0.531	-0.585
COL6A3	-0.643	2.96	-0.485	-0.642
STK11	0.123	1.32	0.274	0.191
PRDM6	0.134	1.6	0.0753	-0.115
DECR1	-0.18	1.73	-0.276	-0.212
NUDT5	-0.961	1.77	-0.925	-0.807
KNTC1	-0.217	1.67	-0.0249	-0.271
EXT1	-0.0555	2.26	0.258	0.294
AKR1B10	0.246	2.32	0.108	0.579
INE1	-0.202	1.74	0.114	-0.377
MYCBP	-0.651	2.57	-0.385	-0.726
ANO3	-0.479	2.13	-0.357	-0.408
PRDM11	0.328	1.94	0.368	0.224
PPP6R1	-0.693	2.9	-0.352	-0.868
NPSR1-AS1	0.301	1.49	0.599	0.681
IL17A	0.118	1.2	0.329	-0.112
INPP5J	-0.226	2.74	-0.309	-0.344
PSME1	-0.57	1.46	-0.544	-0.545
HCN1	-0.584	1.62	-0.656	-0.605
